± gives the standard deviation of the averaged measurements. The list shows a part of the results. The data scatter; read single values as rough.
What was measured:
Details in all cases: 10 µM
[1] = system: Plasmodium vivax liver stage (primary human hepatocyte culture); test: hypnozoite quantity inhibition (% inhibition); higher = more active against hypnozoites
[2] = system: Plasmodium vivax liver stage (primary human hepatocyte culture); test: schizont net growth area inhibition (% inhibition); higher = more active against liver schizonts
[3] = system: primary human hepatocytes; test: hepatic nuclei reduction relative to DMSO (100 - % of negative control); higher = more toxic to hepatocytes
[4] = assay mode: Prophylactic (treated before or shortly after infection), fixed day 6 post-infection
[5] = assay mode: Radical Cure (treated from day 5 post-infection for 3 days), fixed day 8 post-infection

Row | SMILES | hypnozoite quantity inhibition [1, 4] | hypnozoite quantity inhibition [1, 5] | schizont net growth area inhibition [2, 4] | schizont net growth area inhibition [2, 5] | hepatic nuclei reduction [3, 4] | hepatic nuclei reduction [3, 5]
1 | CC(=O)NC[C@@H]1CN(c2ccc(N3CCOCC3)c(F)c2)C(=O)O1 | 18 | -31 | 38.5 | 16.3 | -2% | -5%
2 | COc1cc(C(F)(F)F)nc2ccc(C)c(N)c12 | -40 | 24 | -82.1 | 15.5 | -11% | -4%
3 | CC(C(=O)N1CCCC1)N1CCN(S(=O)(=O)c2ccc(C(C)(C)C)cc2)CC1 (stereo not drawn) | 52 | 16 | 8.6 | 10.7 | 0% | 1%
4 | Cc1cc(Nc2ccc(C(F)(F)F)nc2)n2nc(C(C)(F)F)nc2n1 | -31 | 2 | 63.4 | 62.4 | -6% | 3%
5 | COc1cc(OC)c(N(C)C(=O)c2cc3c(s2)-c2ccccc2S(=O)(=O)C3)cc1Cl | 2.5 | 18.3 | 56.6 | -218 | -4% | -9%
6 | c1ccc(Oc2ccc(-c3cncc(-c4ccc5[nH]ccc5c4)n3)cc2)cc1 | -21 | -18 | -17.1 | -140 | -12% | 0%
7 | O=C1C2=C(Nc3ccccc3SC2c2ccccc2)c2ccccc21 (stereo not drawn) | 12 | 42.8 | 57.8 | -60.5 | 6% | 1%
8 | Nc1nc2ccc(-c3cncc(Oc4ccc(F)cc4)c3)cc2[nH]1 | 4 | -23 | 6.9 | -168 | -8% | -9%
9 | COc1cc(OC)cc(N2C(=O)N(Cc3ccc(C(C)(C)C)cc3)c3ccccc3S2(=O)=O)c1 | -17.1 | -11.7 | 44.6 | -49.6 | -1% | -12%
10 | COc1cccc(C=Cc2nc(=O)c3ccccc3o2)c1OC | -15.4 | 42.7 | 31.9 | 35.7 | -4% | 0%
11 | CN1c2ccccc2N(C)C1c1ccc2c(c1)OCO2 | -5.8 | 54.2 | -49.9 | -7.4 | 2% | 9%
12 | CC1(C)Cc2c(c(N3CCOCC3)nc3snc(Br)c23)CO1 | -17 | -27 | 19.9 | 63.5 | -7% | -2%
13 | CN1CCN(c2nccc3nc(-c4ccc(F)c(F)c4)[nH]c23)CC1 | -93 | -41 | -59.8 | -0.9 | -11% | -2%
14 | CCCCCC(=O)N1c2ccccc2N=C2CC(c3ccc(OC)c(OC)c3)CC(O)=C2C1c1ccc(C(F)(F)F)cc1 (stereo not drawn) | 27.7 | 3.8 | -47.4 | -46 | 6% | 0%
15 | N#Cc1nc(-c2ccccc2F)oc1NCCc1ccccc1 | -2 | 28 | -14.5 | 6.5 | -3% | -5%
16 | N#CCN(CCCCN1CCN(c2ccc(F)cc2)CC1)C(=O)OCc1ccccc1 | 7 | 3 | 26.1 | -41.7 | -5% | -4%
17 | Cc1cc(NC(=O)c2cccc(C(F)(F)F)c2)n(-c2nc(-c3ccc4c(c3)OCO4)cs2)n1 | -41.1 | 10.1 | -52.8 | -5.5 | 3% | -8%
18 | COc1cc(NC(C)CCCN)c2ncccc2c1 (stereo not drawn) | 18 ± 1.4 | -9 ± 34 | 41.4 ± 15 | -9.9 ± 5 | 7 ± 4.2% | 4.5 ± 6.4%
19 | Cc1c(C)n(Cc2ccc(F)cc2)c2ccc(C(=O)NCc3ccco3)cc12 | 10.7 | 67.3 | 35.9 | 6.6 | 8% | -3%
20 | CCCc1c(C)nc2ccccc2c1O | -26.6 | 58.8 | 63.7 | -33.6 | -8% | -4%

3 records picked at random from those above, as already listed:
Row | SMILES | hypnozoite quantity inhibition [1, 4] | hypnozoite quantity inhibition [1, 5] | schizont net growth area inhibition [2, 4] | schizont net growth area inhibition [2, 5] | hepatic nuclei reduction [3, 4] | hepatic nuclei reduction [3, 5]
3 | CC(C(=O)N1CCCC1)N1CCN(S(=O)(=O)c2ccc(C(C)(C)C)cc2)CC1 (stereo not drawn) | 52 | 16 | 8.6 | 10.7 | 0% | 1%
12 | CC1(C)Cc2c(c(N3CCOCC3)nc3snc(Br)c23)CO1 | -17 | -27 | 19.9 | 63.5 | -7% | -2%
1 | CC(=O)NC[C@@H]1CN(c2ccc(N3CCOCC3)c(F)c2)C(=O)O1 | 18 | -31 | 38.5 | 16.3 | -2% | -5%

Additional results follow:

Row | SMILES | hypnozoite quantity inhibition [1, 4] | hypnozoite quantity inhibition [1, 5] | schizont net growth area inhibition [2, 4] | schizont net growth area inhibition [2, 5] | hepatic nuclei reduction [3, 4] | hepatic nuclei reduction [3, 5]
21 | CC(=O)NC[C@H]1CN(c2ccc(N3CCSCC3)c(F)c2)C(=O)O1 | 27 | 3 | 4.2 | -178 | -9% | -9%
22 | c1ccc(Oc2ccc(-c3cc(C4CCOCC4)[nH]n3)cc2)cc1 | 5 | -36 | -45.5 | -48.7 | -2% | 5%
23 | Cc1cc(Nc2ccc(C(F)(F)F)cc2)n2ccnc2n1 | 0 | -53 | 19.8 | 36.1 | -4% | 4%
24 | CCOC(=O)c1cnc2c(CC)cccc2c1O | 0 | 4.7 | 34.8 | -106 | -4% | -3%
25 | O=C(Nc1ccccc1O)c1ccc(-c2ccc(Cl)cc2Cl)o1 | 8.2 | 48.2 | -19 | -43.6 | -1% | -8%
26 | COc1cccc(-n2nnnc2S(C)(=O)=O)c1 | -3 | 12 | -5.5 | 22.3 | -8% | 0%
27 | CC1COC2(CCN(c3nc(=O)c4cc(C(F)(F)F)cc([N+](=O)[O-])c4s3)CC2)O1 (stereo not drawn) | -54 | -44 | 14.4 | -87.8 | 0% | -1%
28 | COc1cc(-c2cc(-c3ccc(S(C)(=O)=O)cc3)cnc2N)ccc1O | 38 | 1 | 90.7 | 91.7 | -7% | -9%
29 | CCCN(CCC)CC(O)COc1ccccc1C(=O)Nc1ccccc1 (stereo not drawn) | -32.5 | 19.8 | -51.8 | 8.4 | -12% | -6%
30 | c1ccc(-c2[nH]c3ccccc3c2C(c2ccccn2)N2CCCC2)cc1 (stereo not drawn) | 31 | 3 | 15.5 | -41.9 | -2% | 0%
31 | CCn1cnc2c(Nc3cc(F)cc(F)c3)nc(C#N)nc21 | -21 | -24 | -93.9 | 8.6 | -11% | -4%
32 | CCC(Sc1nc2ccccc2o1)C(=O)Nc1nnc(C)s1 (stereo not drawn) | -51 | 12 | -23.6 | -22.5 | -1% | -8%
33 | O=C(C1CCN(c2nnc(-n3cccc3)s2)CC1)N1CCC(Cc2ccccc2)CC1 | -7 | -38 | -41.5 | -21.2 | -6% | -4%
34 | Cc1cc(NCCN2CCCCC2)c2ccc3ccccc3c2n1 | -8 | 35.9 | -94.6 | 20.1 | 2% | 4%
35 | CC(C)(C)NCc1cc(Nc2ccnc3cc(Cl)ccc23)ccc1F | -52 | 15 | 39.5 | 35 | -5% | -8%
36 | CC(C)(C)c1ccc2c(c1)CN(Cc1ccc(Cl)cc1)CO2 | 25.3 | -6.2 | 13.7 | -87.6 | 0% | -9%
37 | Cc1ccc(S(=O)(=O)c2c(COC(=O)c3cccc(C)c3)c(-c3ccccc3)nn2C)cc1 | 54.5 | 45 | 97 | 29.2 | -10% | 6%
38 | O=C(NO)C1(CS(=O)(=O)c2ccc(Oc3ccc(Cl)cc3)cc2)CCOCC1 | -80 | 12 | -71.9 | 46.7 | 4% | 5%
39 | O=C(Nc1ccc(Cl)cc1C(=O)Nc1ccncc1)c1ccc(Cl)cc1Cl | 18.3 | -41.6 | 35.5 | -82.2 | -9% | -9%
40 | CCOc1ccc(Nc2ccnc3cc(Cl)ccc23)cc1 | -51.1 | 54.2 | -4.6 | 17.7 | -16% | -7%

Row | SMILES | hypnozoite quantity inhibition [1, 4] | hypnozoite quantity inhibition [1, 5] | schizont net growth area inhibition [2, 4] | schizont net growth area inhibition [2, 5] | hepatic nuclei reduction [3, 4] | hepatic nuclei reduction [3, 5]
41 | OC(CNCC1CCCO1)Cn1c2ccc(Cl)cc2c2cc(Cl)ccc21 (stereo not drawn) | 22.1 | 34.6 | 14.2 | -21.5 | 3% | -5%
42 | COc1cccc(-c2nn(C)c3sc(C(=O)NCCN4CCN(c5ccccc5F)CC4)cc23)c1 | -6.3 | 15.6 | 14.6 | -26.2 | -3% | -8%
43 | COc1ccc(-c2nc(N3CCN(C(=O)C4CCCCC4)CC3)c3c4c(sc3n2)CCCC4)cc1 | 8.8 | 23.7 | 50.1 | -38 | 3% | -6%
44 | CCOc1ccc(C=Cc2nc(=O)c3ccccc3o2)cc1 | 16.5 | 15.3 | 53.9 | 42.9 | -18% | 11%
45 | COc1cc(CN2CCC3(C=Cc4ccccc43)CC2)cc2c1OCO2 | -2 | -23 | -0.6 | -33.3 | 4% | -1%
46 | FC(F)(F)c1cccc(-c2nc3c(NCc4ccncc4)nccc3[nH]2)c1 | 13 | -7 | 15.7 | -51.3 | -13% | -4%
47 | Cc1cc(C)n(-c2ccc(NC(=O)C3CCN(Cc4cnc(C)s4)CC3)cc2)n1 | 13 | 11 | 29 | -14.8 | 2% | -7%
48 | CCCCN(CCCC)c1c(C#N)cc(S(=O)(=O)Nc2ccccc2)cc1C#N | -45 | -49 | 22.4 | -204 | -7% | -5%
49 | O=C(NC1CCCc2c1[nH]c1ccc(Cl)cc21)c1ccccn1 (stereo not drawn) | 27 | -24 | -115 | -15.1 | 3% | -14%
50 | CCOC(=O)C1CCN(C(=O)CN2C(=O)c3ccccc3C2c2c[nH]c3ccccc23)CC1 (stereo not drawn) | -3.2 | -0.8 | 21.3 | -116 | 1% | -6%
51 | CC(C)(C)OC(=O)N1CCN(c2nccc(-c3ccc(-c4ccc(Cl)cc4)s3)n2)CC1 | -88 | -85 | 41.1 | -104 | -2% | -5%
52 | Nc1ncc(-c2ccc(C(=O)N3CCNCC3)cc2)nc1-c1ccc(C(F)(F)F)cc1 | 23 | 2 | 87.9 | 36.2 | -5% | -6%
53 | O=C(NCc1cc(Cl)cc(Cl)c1)c1c(C(F)(F)F)nc2ccccn12 | 17 | -44 | 47.4 | -240 | 2% | -6%
54 | COc1cc(-c2nc(-c3ccc(Sc4ccccc4)cc3)c(-c3ccccc3)[nH]2)cc(OC)c1O | -11.7 | 1.5 | 30 | 0.8 | -1% | -6%
55 | CCCCS(=O)(=O)Nc1ccc2cnn(C)c2c1 | -33 | -41 | 12.8 | -65.3 | -6% | -1%
56 | NCCN(C(=O)c1ccc(Cl)cc1Cl)c1ccc(OCc2ccc(Cl)cc2)cc1 | 49 | -25 | 32 | -15.2 | 10% | 1%
57 | NC(=O)c1cc(Br)ccc1OCCOc1ccccc1 | 42 | -12 | 28.4 | -91.2 | -5% | -11%
58 | O=C(Cc1ccccc1)NC(c1ccc(Cl)cc1)c1c(O)ccc2ccccc12 (stereo not drawn) | -17.7 | 45 | -63.9 | 30.8 | -4% | 1%
